Data from PubChem BioAssay AID588590 (National Center for Advancing Translational Sciences (NCATS), 2011).
Screen size: about 390,000 compounds; about 4,000 (1%) were called active. The inconclusive results got no clear call from the source; some entries with a clear call stand among them for comparison. The call rests on the fitted dose curve; in most records, active means well fitted inhibition curve with a large enough effect; inconclusive means small, poorly fitted or top-dose-only effect, or another doubt; inactive means no such curve, though single readings can be large or run the other way. Potencies beside an inconclusive call are fits to weak or partial responses and may not hold up.

The chains behind the UniProt entries cited, without tags or fusion partners. Where a name states a change or a piece, a line headed by the entry shows the natural chain unless it says otherwise.
UniProt Q9UNA4: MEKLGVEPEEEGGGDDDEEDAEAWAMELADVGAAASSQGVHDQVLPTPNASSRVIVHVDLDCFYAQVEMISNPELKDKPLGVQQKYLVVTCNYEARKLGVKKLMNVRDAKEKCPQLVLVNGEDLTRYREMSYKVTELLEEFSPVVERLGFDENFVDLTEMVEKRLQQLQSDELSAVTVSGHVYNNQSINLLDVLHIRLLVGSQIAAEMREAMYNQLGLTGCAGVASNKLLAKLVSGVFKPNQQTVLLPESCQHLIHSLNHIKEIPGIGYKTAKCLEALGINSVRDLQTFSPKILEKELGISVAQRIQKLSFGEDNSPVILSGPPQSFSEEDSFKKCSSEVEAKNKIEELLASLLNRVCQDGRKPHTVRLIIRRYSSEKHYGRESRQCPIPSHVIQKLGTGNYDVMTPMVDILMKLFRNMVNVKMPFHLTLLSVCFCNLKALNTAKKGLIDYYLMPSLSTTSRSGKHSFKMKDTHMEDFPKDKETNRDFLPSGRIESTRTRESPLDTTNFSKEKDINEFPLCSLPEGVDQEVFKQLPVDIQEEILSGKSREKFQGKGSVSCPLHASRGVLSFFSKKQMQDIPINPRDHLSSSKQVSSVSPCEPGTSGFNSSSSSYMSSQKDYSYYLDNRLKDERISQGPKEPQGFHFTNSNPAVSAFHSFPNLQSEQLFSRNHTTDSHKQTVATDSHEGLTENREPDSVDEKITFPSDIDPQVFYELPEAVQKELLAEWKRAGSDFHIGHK

target: DNA polymerase iota (Homo sapiens) (UniProt Q9UNA4); experiment: qHTS for Inhibitors of Polymerase Iota; conditions: Pol iota fluorescent replication assay, 10 min; series mostly up to 115 µM
Procedure, shortened: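 Fluorescent replication assay read twice, at 0 min and 10 min after adding 50 nM (final) substrate. Enzyme (10 nM) and compounds were first incubated 15 min at room temperature; enzyme-free buffer wells were negative controls.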
Potency means the concentration at half of the fitted maximal effect.

Potency, inactive:
COc1ccc(C)cc1NC(=O)C(=O)NCC(c1cccnc1)N1CCN(c2ccccc2F)CC1 (stereo not given), CCOC(=O)C1CCN(c2c(NCCCN(CC)c3ccccc3)c(=O)c2=O)CC1, Cc1ccc2cccc(NC(=O)c3cccc4c(Br)cccc34)c2n1, COc1ccc(-c2nc3ccccc3c(=O)n2CCCN2CCOCC2)cc1, COc1ccc(N2CCN(C(=O)C3Cc4ccccc4N3C(C)=O)CC2)cc1 (stereo not given), COC(=O)C1=C(C)NC(=O)/C1=C/c1ccc(CNS(=O)(=O)c2ccc(C)cc2)o1, CCc1ccc(C(=O)c2cn(CC(=O)Nc3cc(F)ccc3F)c3nc(C)ccc3c2=O)cc1, CC(=O)Nc1ccc(S(=O)(=O)N(C)CC(=O)OCC(=O)N2CCCC2=O)cc1, CCN=C1S/C(=C\c2ccc(N3CCOCC3)cc2C)C(=O)N1CC, CCc1nc(C)cn1S(=O)(=O)c1ccc(Cl)c(Cl)c1OC, CC1(C)CC(=O)C2=C(C1)Nc1ccccc1NC2c1ccc(F)cc1 (stereo not given), CCc1cc(=O)[nH]c(SCc2nc(-c3ccccc3)no2)n1, CCOC(=O)c1c(NC(C)=O)c2c3c(sc2n1Cc1nc(-c2ccccc2Cl)oc1C)CCCC3, CCOC(=O)C1=C(C)NC(C)=C(C(=O)OCC)C1c1cn(-c2ccccc2)nc1-c1ccco1

Potency, inconclusive:
Cc1ccnn1-c1ccc(C(=O)OCC(=O)Nc2ccc(F)cc2)cc1 79.4 µM [inhibitor, single point], O=c1nc2ccccc2c2n1CC(CN1CCN(c3cccc(Cl)c3)CC1)N2 (stereo not given) 89.1 µM [inhibitor, partial curve, poor fit], COc1ccc(N2CCN(C(=O)Cn3c(=O)c4cccn4c4cccnc43)CC2)cc1 50.1 µM [inhibitor, partial curve, poor fit], C/C=C/c1ccccc1OCc1ccc(C(=O)O)o1 39.8 µM [inhibitor, single point], Cc1nnc(SCC(=O)N2CC(=O)Nc3ccccc32)n1-c1ccccc1 39.8 µM [inhibitor, single point], COC(=O)c1ccc(NC(=O)COc2ccc3c(c2)OCO3)cc1 79.4 µM [inhibitor, partial curve], NC(=O)C1(C(=O)O)OC1(c1ccc(Cl)cc1)c1ccccc1Cl (stereo not given) 89.1 µM [inhibitor, partial curve, poor fit], COc1ccc(Cl)cc1NC(=O)c1cc(-c2cc(C)ccc2O)n[nH]1 56.2 µM [inhibitor, partial curve, poor fit], Cc1c(C)c2cc3c(c(C)c2oc1=O)OCN(CCc1ccccc1)C3 79.4 µM [inhibitor, partial curve], CCOC(=O)CSC1=NC(=O)CS1 14.1 µM [inhibitor, partial curve, poor fit], CC(=O)NNC(=O)CSc1nnc(-c2ccccc2)c(-c2ccccc2)n1 22.4 µM [inhibitor, full curve, poor fit], CSCCC(NC(=O)c1ccco1)c1nc2ccccc2[nH]1 (stereo not given) 50.1 µM [inhibitor, partial curve, poor fit], CSc1sc(C)cc1C1C(C#N)=C(N)N(c2cccnc2)C2=C1C(=O)CCC2 (stereo not given) 79.4 µM [inhibitor, full curve], C/C(O)=C\c1nc2ccccc2oc1=O 2.24 µM [inhibitor, partial curve, poor fit], O=C(Nc1ccc(S(=O)(=O)N2CCCC2)cc1)c1ccccc1 70.8 µM [inhibitor, partial curve, poor fit], COc1ccc(CCC(=O)N2CCN(S(=O)(=O)c3cccc(C(F)(F)F)c3)CC2)cc1OC 63.1 µM [inhibitor, partial curve, poor fit], COc1ccc(NC(=O)CN2CCN(Cc3ccccc3Cl)S2(=O)=O)cc1Cl 89.1 µM [inhibitor, partial curve, poor fit], CCc1c(C)sc(NC(=O)c2ccco2)c1C#N 22.4 µM [inhibitor, partial curve, poor fit], CCOc1ccc(C(=S)NC2CCCCC2)cc1 56.2 µM [inhibitor, partial curve, poor fit], O=C(Nc1ccc2nc(-c3ccco3)[nH]c2c1)c1ccco1 15.8 µM [inhibitor, partial curve, poor fit], Cc1nc2c(-c3ccc(F)cc3)c(C)nn2c(C)c1CCC(=O)NC(C)CCc1ccco1 (stereo not given) 1.58 µM [inhibitor, full curve, poor fit], Cc1ccc(C(=O)N/N=C\c2cc3c(cc2Br)OCO3)s1 15.8 µM [inhibitor, single point], CCC(CC)NC(=O)Cc1ccc(S(=O)(=O)N2CCOCC2)s1 70.8 µM [inhibitor, partial curve, poor fit], O=C(CN1C2CCC1CC(NC(=O)Nc1ccccc1)C2)NCc1ccco1 (stereo not given) 56.2 µM [inhibitor, partial curve, poor fit], COc1ccc(S(=O)(=O)N(C(C)=O)c2ccc3oc(=O)sc3c2)cc1 12.6 µM [inhibitor, partial curve, poor fit], Cc1nc(NC(=O)C2CC2)sc1C(=O)N(C)C 112 µM [inhibitor, single point], O=C(Nc1cccc(Cl)c1)C1CCCN(c2ncnc3c2nc2n3CCCCC2)C1 (stereo not given) 79.4 µM [inhibitor, single point], COc1ccc(CCN2C(=O)/C(=C\c3ccco3)SC2=S)cc1OC 14.1 µM [inhibitor, single point], O=C(O)c1cc(-c2ccc(-c3c(-c4ccc5c(c4)OCO5)noc3-c3ccsc3)cc2)nc2ccccc12 35.5 µM [inhibitor, single point], COc1ccc(/C=N/NC(=O)c2ccc(NC(=O)c3cccc([N+](=O)[O-])c3)cc2)c(C(=O)O)c1OC 28.2 µM [inhibitor, single point], CC(=O)N1CCc2cc(S(=O)(=O)CCC(=O)N3CCN(C(=O)c4ccco4)CC3)ccc21 3.98 µM [inhibitor, partial curve, poor fit], CCNC(=O)c1c(NC(=O)c2nc(S(=O)(=O)CC)ncc2Cl)sc2c1CCCC2 17.8 µM [inhibitor, partial curve], O=C(O)CC1S/C(=N/N=C/c2ccc(-c3ccc(Cl)cc3[N+](=O)[O-])o2)NC1=O (stereo not given) 11.2 µM [inhibitor, full curve, poor fit], O=C(c1ccc([N+](=O)[O-])o1)N1CCN(Cc2ccccc2)CC1 63.1 µM [inhibitor, single point], Cc1ccc(CNC(=O)c2cc3c(s2)-c2c(C)cccc2OC3)cc1 56.2 µM [inhibitor, partial curve, poor fit], O=C1c2cccnc2C(=O)N1c1nc(-c2ccccc2)cs1 89.1 µM [inhibitor, single point], CC(C)CC1C(C#N)=C(N)Oc2n[nH]c(-c3cccs3)c21 (stereo not given) 28.2 µM [inhibitor, partial curve, poor fit], O=C(NC(=S)Nc1cccc2cnccc12)c1ccccc1 25.1 µM [inhibitor, full curve, poor fit], COC(=O)c1ccc(C2C(C(=O)c3cc4ccccc4o3)=C(O)C(=O)N2c2cc(C)on2)cc1 (stereo not given) 14.1 µM [inhibitor, partial curve, poor fit], CC(=O)NS(=O)(=O)c1ccc(NC(=O)c2ccc3c(c2)NC(=O)CS3)cc1 28.2 µM [inhibitor, full curve], Cc1ccc(-c2nn(-c3ccccc3)cc2/C=C/C(=O)O)o1 39.8 µM [inhibitor, partial curve, poor fit], Cc1ccc(C(=O)Nc2ccsc2C(=O)O)cc1 11.2 µM [inhibitor, partial curve, poor fit], CCOC(=O)N1CCN(c2ccc(C(=O)CC)cc2F)CC1 100 µM [inhibitor, single point], CC1(C)CC(=NOC(=O)c2ccccc2)CC(C)(C)N1O 100 µM [inhibitor, single point], Cc1cc(=O)oc2cc(OCC(=O)Nc3ccc(O)c(C(=O)O)c3)ccc12 89.1 µM [inhibitor, single point], COc1ccc(N2CCN(C(=O)c3cc4c(-c5cccc(OC)c5)nn(C)c4s3)CC2)cc1 15.8 µM [inhibitor, partial curve, poor fit]

Potency, active:
N#Cc1c(-c2ccccc2)c(C#N)c2nc3ccccc3n2c1N 15.8 µM, CSc1cccc(NC(=O)CN(Cc2ccc(Cl)cc2)S(C)(=O)=O)c1 89.1 µM, Cc1ccc(SC2=C(N(C)C)C(=O)c3ccccc3C2=O)cc1 20 µM, COc1ccc(-n2c(C)cc(/C=C3\C(=N)N4N=C(CC(=O)N5CCOCC5)SC4=NC3=O)c2C)c(OC)c1 44.7 µM, Oc1ccc(NCc2ccc(OCc3ccccc3)cc2)cc1 10 µM
